Measured values taken from PubChem BioAssay AID504467 (National Center for Advancing Translational Sciences (NCATS), 2011).
Hit rate of the full screen: of about 330,000 compounds, about 7,700 (2.3%) were called active. Inconclusive results, whose numbers are uncertain, are shown with a selection of clear calls. The call rests on the fitted dose curve; in most records, active means well fitted inhibition curve with a large enough effect; inconclusive means small, poorly fitted or top-dose-only effect, or effect the other way; inactive means flat fitted curve, though single readings scatter. Where the call is inconclusive, the potency comes from a doubtful curve fit.

Assay: qHTS screen for small molecules that inhibit ELG1-dependent DNA repair in human embryonic kidney (HEK293T) cells expressing luciferase-tagged ELG1; further: nearly all actives have a fitted effect of over 55% in size
Details: HEK293T ELG1-luciferase reporter, luminescence, 16 h, DNA damage induced by 5-fluorouridine; activity change, negative = inhibition: at 46.1 µM (top of the series)
Method in brief: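 Step one: seed 2,000 cells per well. Step two: pin-transfer compound or DMSO alongside 5-fluorouridine. Step three: incubate 16 hr, 37 °C, 5% CO2. Step four: add ONE-Glo, wait 30 min, read luminescence.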
On the % scale 0 is the no-effect control and ±100 the full control effect; potency means the concentration at half of the fitted maximal effect.

SMILES	Potency	activity change, negative = inhibition
CCCC(=O)N1CCCC(c2nc(-c3cccc(OC)c3)no2)C1 (stereo not drawn)	inconclusive: 5.8 µM [activator, full curve]	
COc1cc(NC(=S)NCc2ccco2)cc(OC)c1OC		inactive: -5.07%
O=C(COc1coc(CN2CCc3ccccc3C2)cc1=O)Nc1ccc([N+](=O)[O-])cc1	inconclusive: 23.1 µM [inhibitor, partial curve, poor fit]	
CC(=O)Nc1ccccc1C(=O)C(=O)Nc1ccccc1	inconclusive: 20.6 µM [activator, partial curve]	
Cc1cc(-c2nnc(SCCC(=O)Nc3ccccc3)o2)no1	inconclusive: 0.0046 µM [inhibitor, full curve, poor fit]	
CCC1CCC(C(=O)NC(C(=O)NCCCN2CCCCC2C)C(C)C)CC1 (stereo not drawn)		inactive: 24.8%
CC(C)(C)C(=O)c1no[n+]([O-])c1/C(=N/O)C(C)(C)C	inconclusive: 18.4 µM [inhibitor, partial curve]	
Cc1ccccc1C(=O)N1CCC(C(=O)Nc2nc3ccc(F)cc3s2)CC1	inconclusive: 9.2 µM [inhibitor, single point]	
O=C(NCCCc1ccccc1)c1cnc2n(c1=O)CCS2	inconclusive: 18.4 µM [activator, partial curve]	
Cn1c(COc2ccccc2)nc2ccccc21	inconclusive: 18.3 µM [activator, partial curve]	
CCOC(=O)C1C(=O)CC(C)(O)C(C(=O)OCC)C1c1ccc(C)s1 (stereo not drawn)	inconclusive: 25.9 µM [activator, single point]	
OCCN1CCN(CC(O)COc2ccc(Cl)cc2)CC1 (stereo not drawn)		inactive: 13.1%
Cc1ccc(C)c(NC(=O)CCc2ccc(S(=O)(=O)NC3CCCCC3)cc2)c1	inconclusive: 20.6 µM [inhibitor, partial curve]	
Cn1c(=O)c2c(nc(N3CCN(c4ccccn4)CC3)n2Cc2ccc(Cl)cc2Cl)n(C)c1=O		inactive: 15.3%
CCCCCCCCCCCCOC(=O)C[N+](C)(C)C		inactive: -16.2%
COc1ccc(C(=O)Nc2ccc(N3CCN(C(=O)c4ccccc4C)CC3)cc2)cc1	inconclusive: 2.31 µM [inhibitor, partial curve, poor fit]	
COc1ccc(CCNC(=O)c2cccc(NC(=O)CC3SC(N4CCCCC4)=NC3=O)c2)cc1OC (stereo not drawn)	inconclusive: 32.6 µM [inhibitor, partial curve, poor fit]	
CCCc1ccc(OCc2ccc(C(=O)Nc3cccc(C)n3)o2)c(OC)c1	inconclusive: 23.1 µM [inhibitor, single point]	
COc1ccccc1-c1sc2cc3c(cc2c1C#Cc1cncn1C)OCO3		inactive: -26.5%
COc1cccc(CC(=O)OCC(=O)NC(C)c2ccc(F)cc2)c1 (stereo not drawn)		inactive: 16.5%
COc1ccccc1CNC(=O)c1cc(-c2cccnc2)nc2ccccc12	inconclusive: 18.3 µM [inhibitor, single point]	
CCC1(C)Cc2c(sc(NC(=S)NC(=O)c3ccccc3)c2C#N)CO1 (stereo not drawn)	inconclusive: 23.1 µM [activator, single point]	
COc1ccccc1OCCNC(=O)c1cccc(S(=O)(=O)N2CCN(Cc3ccccc3)CC2)c1	active: 20.6 µM	

SMILES	Potency	activity change, negative = inhibition
Cc1cc(C)cc(NC(=O)c2ccc(Cn3nc(C)c(Cl)c3C)o2)c1	active: 20.6 µM	
CCCCC1=CC2=CC(=O)C(C)(OC(=O)CC)C(=O)C2=CN1C1CCCCC1 (stereo not drawn)		inactive: -0.0854%
COc1ccc(S(=O)(=O)Nc2ccc3c(c2)C(=O)N([C@H](C)CO)C[C@H](C)[C@@H](CN(C)S(=O)(=O)c2ccccc2)O3)cc1	inconclusive: 25.9 µM [inhibitor, single point]	
C/C(=N\NC(=O)C1CC1)c1cccc(NC(=O)c2cccc(Cl)c2)c1	inconclusive: 29.1 µM [inhibitor, single point]	
Cc1ccc(-c2[nH]ncc2/C=C(\C#N)C(=O)NC2CCCCC2)cc1	active: 9.2 µM	
CCN1CCN(Cc2coc3ccc(C)cc3c2=O)CC1	inconclusive: 20.6 µM [activator, partial curve]	
COCCOC(=O)c1c(NC(=O)CNC2CCCc3ccccc32)sc(C(N)=O)c1C (stereo not drawn)	inconclusive: 5.17 µM [inhibitor, full curve, poor fit]	
COCCCC1CCN(C(=O)CCc2nnc(CCCCc3ccccc3)o2)CC1	inconclusive: 23.1 µM [inhibitor, partial curve, poor fit]	
COc1ccc(/C=C(\CC(=O)O)c2nc3ccccc3s2)cc1O		inactive: 7.66%
Nc1cccc(Nc2nc(OC(C(F)(F)F)C(F)(F)F)nc(OC(C(F)(F)F)C(F)(F)F)n2)c1	inconclusive: 29.1 µM [inhibitor, single point]	
O=C(c1ccc(N2CCN(C3CC(=O)N(Cc4cccs4)C3=O)CC2)cc1)c1cccnc1 (stereo not drawn)	inconclusive: 18.3 µM [inhibitor, partial curve]	
COc1ccc(/C=N/NC(=O)c2ccc(O)cc2O)cc1CSc1ccccn1	inconclusive: 29.1 µM [activator, single point]	
O=C(CCc1ccccc1)Nc1nc2ccc(S(=O)(=O)N3CCOCC3)cc2s1	inconclusive: 9.2 µM [activator, partial curve, poor fit]	
O=C(CCc1ccc(S(=O)(=O)NCCc2ccccc2)cc1)NCc1ccc2c(c1)OCO2	inconclusive: 29.1 µM [inhibitor, single point]	
Cc1cc(O)c(C(C)C)cc1N=Nc1ccccc1C(=O)O	inconclusive: 13 µM [inhibitor, partial curve]	
Cc1ccc(C(=O)c2cc([N+](=O)[O-])ccc2N2CCN(C)CC2)cc1		inactive: -10.6%
Cc1cc(OCC(=O)N(C(C)C)C(C)C)ccc1Cl		inactive: 4.14%
COC(=O)CC1(C(=O)OC)Oc2ccc(Br)cc2C(=O)N1c1cc(Cl)c(Cl)cc1Cl (stereo not drawn)	active: 16.4 µM	
CCN(CCn1cccn1)Cc1ccccc1OCC(O)CN1CCc2ccccc2C1 (stereo not drawn)		inactive: -4.34%
Cc1ccc(C(=O)Nc2nc(C)c(C)s2)o1	inconclusive: 3.66 µM [activator, full curve]	
O=C(NC(=S)N1CCN(C/C=C/c2ccccc2)CC1)c1cccnc1	inconclusive: 16.4 µM [inhibitor, single point]	
CCOC(=O)C1(CC2CCCCO2)CCN(Cc2nc(-c3cccs3)oc2C)CC1 (stereo not drawn)	inconclusive: 16.4 µM [inhibitor, single point]	
O=C(O)CC(NC(=O)c1ccco1)c1ccco1 (stereo not drawn)	inconclusive: 6.51 µM [inhibitor, single point]	

SMILES	Potency	activity change, negative = inhibition
CCC(CC)C1C(C#N)=C(N)Oc2n[nH]c(-c3ccccc3)c21 (stereo not drawn)	inconclusive: 23.1 µM [inhibitor, single point]	
Cc1ccc(Oc2ncccc2C(=O)NC2CCSC2=O)cc1 (stereo not drawn)		inactive: 5.62%
Cc1cc(C)nc(N2CCC(C(=O)N3CCN(c4cc(Cl)ccc4C)CC3)CC2)n1	inconclusive: 35.5 µM [inhibitor, single point]	
CC1=C(C(N)=O)C(c2ccc(Cl)cc2Cl)n2ncnc2N1 (stereo not drawn)		inactive: -1.75%
COc1ccc(NC(=O)c2cncc(Br)c2)c(S(=O)(=O)N2CCOCC2)c1	active: 11.2 µM	
CCOC(=O)C1(CCC(C)C)CC(CSc2nc3ccccc3[nH]2)OC1=O (stereo not drawn)	inconclusive: 20.6 µM [inhibitor, single point]	
CCOC(=O)c1oc2ccc(S(=O)(=O)n3nc(-c4ccccc4)cc3N)cc2c1C	inconclusive: 4.61 µM [inhibitor, single point]	
CCN(CC)S(=O)(=O)c1ccc(-c2nnc(SCC(C)=O)o2)cc1		inactive: 13.5%
Cc1ccc(C(=O)Nc2cccc(C(F)(F)F)c2)cc1NC(=O)c1cnnc2ccccc12	inconclusive: 1.83 µM [inhibitor, single point]	
CCOC(=O)CSc1nc2cc(OCC)ccc2cc1C#N	inconclusive: 5.8 µM [activator, partial curve]	
CCc1ccc(-c2cc(-c3n[nH]c(=S)n3CC)c3ccccc3n2)cc1		inactive: -10.9%
COc1cccc(C(=O)N(Cc2cc3cc(C)ccc3[nH]c2=O)C(C)C)c1	inconclusive: 18.4 µM [inhibitor, single point]	
CCCCOC(=O)Nc1ccc(N2CCOCC2)cc1	inconclusive: 11.6 µM [activator, partial curve]	
CC(C)(C)C(=O)Nc1nnc(SCc2cccc(F)c2)s1	inconclusive: 9.2 µM [activator, partial curve]	
COC(=O)[C@H](Cc1ccccc1)N(C)S(=O)(=O)c1cccc(S(=O)(=O)N(C)[C@@H](Cc2ccccc2)C(=O)OC)c1	inconclusive: 3.66 µM [inhibitor, single point]	
O=C(C[N+]1(CC#Cc2ccccc2)CCCCC1)c1ccc(Cl)cc1	inconclusive: 29.1 µM [inhibitor, single point]	
CN(C)/C=N/NC(=O)c1ccccc1Cl	inconclusive: 1.46 µM [inhibitor, full curve, poor fit]	
COc1cc2c(cc1OC)CN(CC(=O)Nc1ccc(S(=O)(=O)N3CCCC3)cc1)CC2	inconclusive: 18.3 µM [inhibitor, single point]	
Cc1cc(N2CCN(c3ccccc3)CC2)n2ncnc2n1		inactive: -9.1%
COc1ccc(CCNC(=O)/C=C/c2ccco2)cc1		inactive: 6.03%
COc1ccc(-c2cc(C(=O)OCC(=O)c3ccc(C)c([N+](=O)[O-])c3)c3ccccc3n2)cc1	inconclusive: 16.4 µM [activator, partial curve]	
CCc1c(O)cc2n(c1=O)-c1ccccc1C2(C)C	inconclusive: 3.26 µM [activator, partial curve, poor fit]	

Structures shown so far containing a nitro group on carbon (three):
SMILES	Potency	activity change, negative = inhibition
O=C(COc1coc(CN2CCc3ccccc3C2)cc1=O)Nc1ccc([N+](=O)[O-])cc1	inconclusive: 23.1 µM [inhibitor, partial curve, poor fit]	
Cc1ccc(C(=O)c2cc([N+](=O)[O-])ccc2N2CCN(C)CC2)cc1		inactive: -10.6%
COc1ccc(-c2cc(C(=O)OCC(=O)c3ccc(C)c([N+](=O)[O-])c3)c3ccccc3n2)cc1	inconclusive: 16.4 µM [activator, partial curve]	
